Experimental data taken from the supplement of paper PMC5949888.
Most values lie at the floor of the assay. Slopes are relative: functional sequences can read slightly below zero.

Test system: Saccharomyces cerevisiae PS128 hsf1 delta, HSF1(1-493) fusion
Experiment: growth estimate (transactivation domain function in HSF1 fusion, heat-shock survival) (a.u. (slope of normalised read count over time)); higher = stronger growth at 37°C, i.e. more transactivation activity
Details: library: random library

Substance	growth estimate
IPTYLRQPI	< -0.25
PVVSSYRGRRSAISQIVSTR	< -0.25
SLGSKGRIRRMDFQRVRRSR	< -0.25
CALLNYHPK	< -0.25
KSIMELYFVACTTAYRAECF	< -0.25
GSTEWLRGSRTRGSPHSTRG	< -0.25
QSGNWG	< -0.25
SEWRRAILLPISRVQPVHAW	< -0.25
KLVGISSTIIGTAAKVVHAS	< -0.25
VCDSLDSLDVLCKLIECNTY	-0.246
SQKLGSADTL	< -0.25
GPFQRSDEILSQFEVFGVQP	< -0.25
ALVGVEQVD	< -0.25
SSIYVRSQILGTGMKNGEHS	< -0.25
VLTISAWFLWA	< -0.25
RHKCRLTRACEFDLFLAVLH	< -0.25
PTSG	< -0.25
TRRYRPAAGRRFRVCLKMRH	< -0.25
RFFRLVYIPSVSRLEP	< -0.25
KIPSSGVNSSWTLVSGFYIH	< -0.25
LTVSFGHDVGRPKGYGSQD	-0.25
GDTILTDHVSLARRLRVGDV	< -0.25
GNIKGGKRSKGIKRGGCRDA	< -0.25
AGGLILQAWRAFGITMGCCS	< -0.25
IVVATSEKLAGSNAYGCCTM	< -0.25
QLFQFCLPVQEGDVIACPDT	< -0.25

Reformatted as a markdown table: entries from further up

| Substance | growth estimate |
| --- | --- |
| TRRYRPAAGRRFRVCLKMRH | < -0.25 |
| RFFRLVYIPSVSRLEP | < -0.25 |
| KIPSSGVNSSWTLVSGFYIH | < -0.25 |
| LTVSFGHDVGRPKGYGSQD | -0.25 |
| GDTILTDHVSLARRLRVGDV | < -0.25 |

(cont.)

Substance	growth estimate
TQIINLVPPIGLVTRN	< -0.25
SPVVSEGPYLVHTSLD	< -0.25
KTNRHEGQ	< -0.25
QYTA	< -0.25
KGDACRVDTLGSAICSLRQL	< -0.25
INDRHSKSSIEGFSALYWPP	-0.181
ERPPPCSSGGHVRHRSSVRD	< -0.25
FHRCGPHTARWKCEIRVYST	< -0.25
TGHSLYSLV	< -0.25
VEGCGLRKNQVQ	< -0.25
FRESSMRSRSYAGVIVLTYV	< -0.25
LFQGSIGRFR	< -0.25
TRGESQIQVSGVYGCESVQA	-0.246
MLQPRRCC	< -0.25
CCSGADSEARRRAGTASLCL	< -0.25
RAIHPFQIRLFSDFPGGHPL	-0.203
VKSRVNC	< -0.25
RPPLGRRFRPSERHETFEVA	-0.209
VCLPKRATEANS	< -0.25
YRSRSDGAAIAFSMG	< -0.25
RFVEAIR	< -0.25
VLRVYFHANWDPDTT	< -0.25
DLD	0.0776
GDGYSKEIYFYK	< -0.25
SSIICSIDPSDVGWNVPRAS	< -0.25
ERTIRLEVMRTYC	< -0.25

Substance	growth estimate
PVEPIFCVNDLHQGPEASEA	< -0.25
TFSTRLNGPPTRVRRSARCV	< -0.25
ASWLEPRSGKRPFSWVFKLC	< -0.25
GNRSRPLRPVIRMVRLSLRP	< -0.25
GQGLRRPFPEAPRQYCAPQS	< -0.25
RRLPGEIDTGGHNPLFLTAV	-0.237
GGLHLVRMEKGSGDSGRWMG	< -0.25
GLNVHAWGSSNNRGGDR	< -0.25
IAICFICLGCG	-0.246
PAGLVHGAKQLVASSMIMPA	< -0.25
RGSEESHGSARIAICAFTRR	< -0.25
STMPSASQTGARILNVSADP	< -0.25
AKLLTCCKGVSRLNSILALL	< -0.25
YAS	-0.243
RVRDVKQLALLTSGDECHPD	< -0.25
SIRELLQAILGTPTSALRWW	< -0.25
NHQSVIVYVDIFRKREVFGF	-0.242
TLRHLQLRRVKLISGRYPAR	< -0.25
CKRRCD	< -0.25
EGPELARLTVDERDGRFRQP	< -0.25
IRVGESIC	< -0.25
PVAGPRSVASGGC	< -0.25
VDWRWTPTVLADRQATYSGK	< -0.25
LDTSSRKYGRRLANARGLAI	< -0.25
TRLANTRQSRLQ	< -0.25
SWGFDVTTFWLTEARIAAPG	< -0.25

Substance	growth estimate
ASLTRQGTDRGTPC	< -0.25
RGFNRGRGRAPVKSSSYLGW	< -0.25
AYIWRSMNCLSRSENRPGSQ	< -0.25
QRSLFNTQQVVQG	< -0.25
KSEVVGGFLSIYGYDVYRDR	< -0.25
KRVKLDTARGMSASRRPGVA	< -0.25
PRVYREL	< -0.25
DGA	< -0.25
ILIRRGSVTIYAFDGCTTPD	< -0.25
WRCIPS	-0.208
RLQEKLLLGSGLGATVTRHT	< -0.25
QIGCLHRLAVGGMHQGKT	< -0.25
CLLLKNCVRPCATPTTLQSA	< -0.25
ERGRSGRCSVRCS	< -0.25
ALEENDRPTLLNRSKT	< -0.25
LWASFPMFAQKPPSVLYTAP	< -0.25
GFASGRE	< -0.25
QPYSYNRGKLEGCSYAELLG	< -0.25
RLVASFTLRCRRKVARWVVS	< -0.25
IGECTKWRSYDDIHYIPTAF	< -0.25
TVEGNECVVLDVWHRYPSWC	< -0.25
HVPGCDTVEHEISRRP	< -0.25
TARWFS	< -0.25
LVTCRYVAPPIHWTCARSR	< -0.25
FLYLASHRASAARTCHLLCQ	< -0.25
LYPNTRT	< -0.25

Given in CSV form: part of the list above
Substance,growth estimate
AYIWRSMNCLSRSENRPGSQ,< -0.25
LWASFPMFAQKPPSVLYTAP,< -0.25

(listing goes on)

Substance	growth estimate
IRGHRVCLVTGVPSLRPASP	< -0.25
CQGCWDEYERRSTRML	< -0.25
IRSMLWWDDTRQHSWKSRTA	< -0.25
ASNSIAEWLLCRDRTEVPEQ	0.784
QNTAE	< -0.25
STGVLVGVDQIHGNGVEL	< -0.25
RVYCVLRVE	< -0.25
YDSCSAGISRYKGRGRATV	< -0.25
KSEFNRTCKACGEI	< -0.25
GVCSGNQQFRSEHSVLHTGP	< -0.25
YWLGI	< -0.25
RDGRKVVCPLQGGESKIMEL	< -0.25
YGCAARVRLFA	< -0.25
YAVERRGLIVRPLIRRRS	< -0.25
RGPSHNV	< -0.25
TGYITKVLPFLMVL	< -0.25
PEGTGCFQRNTRGAVSALEL	< -0.25
GDSRQRHSKKYAAFSPVHYG	< -0.25
GGTVTQV	< -0.25
PCRRSLSCTATQAPES	< -0.25
VIRFYSVLSLPHYRVMPLGC	< -0.25
GAYS	< -0.25
ARSSRSSNPALCVWCSRSCT	< -0.25
NWCILRITRR	< -0.25
YLVTLLPGGALARIVQRPS	< -0.25
AAGSQYPIVRRCLRPR	< -0.25

Substance	growth estimate
NVISVPGLRWACIPLLKGVE	< -0.25
RRCVHHSFLRDMRLRLKSHP	< -0.25
ALNTAVGM	< -0.25
WIQRPSRVLGDGVCGTSTIG	< -0.25
TACPTST	< -0.25
IFCMIRVGAEGSTWGARLRT	< -0.25
TVQLCAASTYGQWCAKLYKE	< -0.25
AARLHFEVNKCNKSLWSNYG	< -0.25
TGGNVCLTSHHFSKDRLSAL	< -0.25
ISGEMDH	< -0.25
LGGDDDTCWGKFSHITVLAP	< -0.25
SRVWDGNSSRRMASPTGSHR	< -0.25
TTCSLHKSAEGHRA	< -0.25
QLRLGLVDFLNTLDL	< -0.25
ILNSDTLTRWTPLSPRPGP	< -0.25
MAGCSRSTSGRDFIFSLPRL	< -0.25
DRGSFIQKF	< -0.25
FAEWLFSQKRSPGRALWETD	30.3
PVRTIQAPRL	< -0.25
CYPVLRGAIVGKRVMLCWDS	< -0.25
HDP	< -0.25
SQHAVMSGVPFRRLETSYKA	< -0.25
CNSKYRDQYILGGFAVLTYG	< -0.25
